## Results of single-concentration screens

Sequences of proteins named here, by UniProt entry; tags and fusion partners are left off. Residues count along the entry.
UniProt Q4DA54, 1-478: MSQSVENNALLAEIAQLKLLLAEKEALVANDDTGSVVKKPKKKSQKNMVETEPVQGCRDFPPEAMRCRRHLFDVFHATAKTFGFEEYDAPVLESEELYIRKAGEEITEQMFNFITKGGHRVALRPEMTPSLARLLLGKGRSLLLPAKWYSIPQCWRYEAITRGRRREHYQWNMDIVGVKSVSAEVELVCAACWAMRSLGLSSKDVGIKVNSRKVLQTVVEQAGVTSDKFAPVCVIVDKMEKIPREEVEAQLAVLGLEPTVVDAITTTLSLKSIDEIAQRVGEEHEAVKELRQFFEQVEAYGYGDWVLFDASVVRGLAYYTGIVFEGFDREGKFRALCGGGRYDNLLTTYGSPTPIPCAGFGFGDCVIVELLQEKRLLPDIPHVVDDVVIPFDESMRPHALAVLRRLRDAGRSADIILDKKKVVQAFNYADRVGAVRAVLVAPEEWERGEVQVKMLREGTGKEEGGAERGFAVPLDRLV
UniProt A4I591, 1-473: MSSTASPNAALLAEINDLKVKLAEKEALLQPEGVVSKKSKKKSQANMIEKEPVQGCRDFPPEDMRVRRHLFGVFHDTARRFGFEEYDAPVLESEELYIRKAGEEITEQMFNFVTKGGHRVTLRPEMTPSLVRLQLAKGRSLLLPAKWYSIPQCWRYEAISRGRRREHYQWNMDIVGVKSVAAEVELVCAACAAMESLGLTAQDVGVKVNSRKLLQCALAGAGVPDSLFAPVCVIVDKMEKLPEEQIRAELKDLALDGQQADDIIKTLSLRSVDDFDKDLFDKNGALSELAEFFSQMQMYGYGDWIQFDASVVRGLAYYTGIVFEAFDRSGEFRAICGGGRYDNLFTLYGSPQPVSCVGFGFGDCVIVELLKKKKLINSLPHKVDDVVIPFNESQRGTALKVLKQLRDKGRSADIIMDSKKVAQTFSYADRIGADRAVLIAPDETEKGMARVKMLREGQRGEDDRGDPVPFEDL

From ChEMBL document CHEMBL3988442, “University of Dundee, Small-Polar-MMV Screening Library” (2021).

Results are given as percent effect.
The record does not define 0% and 100%; most values in the screen are far below 50% and negative numbers occur (in some assays of this library far below -100).
The compounds are a random part of those screened.

Toxoplasma: 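Assay of Toxoplasma gondii numbers, read through their beta-galactosidase reporter with a colour substrate. Compounds at 10 µM. The record gives no direction; the compounds picked for IC50 retests had high values, so higher reads as fewer parasites. About 67,000 compounds were tested under these conditions; 0.38% (about 260) showed 50% or more at least once.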
TcHisRS: 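Histidine-tRNA ligase, Trypanosoma cruzi CL Brener (UniProt Q4DA54). Enzyme assay of histidyl-tRNA synthetase; the read-out is not stated. Tested at 30 µM. The record gives no direction; compounds that gave an IC50 in retests scored well above the rest, so higher reads as stronger inhibition. About 69,000 compounds were tested under these conditions; 0.045% (about 31) showed 50% or more at least once.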
LiHisRS: 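Histidine-tRNA ligase, Leishmania infantum (UniProt A4I591). Enzyme assay of histidyl-tRNA synthetase; the read-out is not stated. Compounds at 30 µM. Direction is inferred from retests: higher values go with stronger inhibition. The assay is labelled LdHisRS but filed under L. infantum. About 69,000 compounds were tested under these conditions; 0.6% (about 410) showed 50% or more at least once.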
T. brucei: 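Whole-parasite assay of Trypanosoma brucei over 72 hours; the read-out is not stated. Concentration: 30 µM. Higher reads as stronger inhibition (inferred: compounds with an IC50 in retests scored well above the rest). Values scatter widely below zero; nearly all retest evidence comes from the higher of the two concentrations used. Of about 64,000 compounds tested this way, about 940 (1.5%) reached 50% or more in at least one test.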

{"compound": "Fc1cccc(CN2CCC(c3noc(-c4ccccn4)n3)CC2)c1F", "Toxoplasma": 1.68, "TcHisRS": -1.128, "LiHisRS": -1.418}
{"compound": "CC1(C(=O)N2CCOCC2)CN(Cc2c[nH]cn2)CCO1", "stereo": "stereo unspecified", "Toxoplasma": -9.286, "TcHisRS": 12.22, "LiHisRS": 16.49, "T. brucei": -3.828}
{"compound": "COc1ccc(C(C)(C)C)cc1CN1CCn2c(CO)nnc2C1.O=C(O)CC(O)(CC(=O)O)C(=O)O", "Toxoplasma": -20.56, "T. brucei": 3.045}
{"compound": "O=C(O)C(F)(F)F.O=C(O)C(F)(F)F.[H][C@@]12CCCO[C@]1([H])[C@H](NC(=O)c1cnn(C)c1)CN2Cc1cccnc1", "Toxoplasma": 2.141, "T. brucei": -5.091}
{"compound": "CCOCC1CC2(CCN(Cc3ccccn3)CC2)CO1", "stereo": "stereo unspecified", "Toxoplasma": -7.008, "TcHisRS": 1.639, "LiHisRS": 7.843, "T. brucei": 13.46}
{"compound": "O=C(NC[C@H]1C[C@@H]2CCN1C[C@@H]2CN1CCOCC1)Nc1ccsc1", "TcHisRS": 4.95, "LiHisRS": 11.11}
{"compound": "Cn1cc(Cl)cc1C(=O)N1CCCN(Cc2ccccc2)CC1", "Toxoplasma": -6.631, "TcHisRS": 11.18, "LiHisRS": 14.68}
{"compound": "COc1ccccc1NC(=O)c1cnc(C2CCN(C(C)=O)C2)nc1C", "stereo": "stereo unspecified", "Toxoplasma": 7.891, "TcHisRS": 3.955, "LiHisRS": 8.392, "T. brucei": -22.28}
{"compound": "c1cc(-c2nn3c(CN4CCOCC4)nnc3s2)ccn1", "Toxoplasma": 60.13, "TcHisRS": -0.8696, "LiHisRS": 10.34, "T. brucei": -9.423}
{"compound": "O=C(O)C(F)(F)F.[H][C@]12CCCC(N(C)Cc3cccs3)[C@@]1([H])CN(C(=O)c1cnccn1)C2", "stereo": "stereo partly specified", "Toxoplasma": -3.182, "T. brucei": -55.32}
{"compound": "COc1cccc(CN2C[C@@H]3COC[C@]3(CN3CCOCC3)C2)c1", "TcHisRS": 7.563, "LiHisRS": 8.257}
{"compound": "CC1(c2ccccc2)CCCN(C(=O)c2ccn3nnnc3c2)C1", "stereo": "stereo unspecified", "Toxoplasma": 32.7, "TcHisRS": 6.466, "LiHisRS": 11.39, "T. brucei": -12.67}
{"compound": "Cc1ncsc1CN1CC[C@](C)(O)[C@@H](Oc2cccc(F)c2)C1", "Toxoplasma": 0.948, "TcHisRS": 0, "LiHisRS": 10.14, "T. brucei": -15.64}
{"compound": "CC(Cn1cccn1)Nc1cnc2ccccc2n1", "stereo": "stereo unspecified", "Toxoplasma": 15.83, "TcHisRS": 4.386, "LiHisRS": 17.86, "T. brucei": -12.4}
{"compound": "O=C(O)C(F)(F)F.O=C1COC2(CCN(c3ncccn3)CC2)CN1", "Toxoplasma": 9.994, "T. brucei": -0.483}
{"compound": "CN(C)CCNCCC(c1ccccc1)C1CCOC(C)(C)C1", "stereo": "stereo unspecified", "TcHisRS": 13.54, "LiHisRS": 16.67}
{"compound": "O=C(O)C(F)(F)F.O=C(O)C(F)(F)F.[H][C@@]12COC[C@]1(CNC(=O)c1ccno1)CN(Cc1ccncc1)C2", "Toxoplasma": -6.83, "T. brucei": -16.31}
{"compound": "CCCn1c(N2CCCC2)nc2c(C)nn(C)c2c1=O", "Toxoplasma": 74.14, "TcHisRS": -1.739, "LiHisRS": 10.34, "T. brucei": -10.23}
{"compound": "CC(C)c1nc(C(=O)N2CCOCC2CC(=O)c2ccco2)cs1", "stereo": "stereo unspecified", "Toxoplasma": 3.992, "TcHisRS": 6.533, "LiHisRS": 13.48, "T. brucei": 0.2128}
{"compound": "Cc1csc(CCNC(=O)C2CCN(CC(N)=O)CC2)n1", "Toxoplasma": 19.42, "TcHisRS": -2.128, "LiHisRS": -6.25, "T. brucei": -72.82}
{"compound": "COCCN1CCC(CNc2nccc(-c3cnn(C)c3)n2)CC1", "Toxoplasma": -0.7887, "TcHisRS": 2.186, "LiHisRS": -5.263, "T. brucei": -11.85}
{"compound": "Nc1ncnc2[nH]c(N3CCCCC3)nc12", "Toxoplasma": 11.78, "TcHisRS": 9.278, "LiHisRS": 24.14, "T. brucei": -25.22}
{"compound": "CC(=O)N1CCC2(CC1)CNc1ccc(F)cc12", "Toxoplasma": -32.21, "TcHisRS": 5.882, "LiHisRS": 35.04}
{"compound": "CC(C)=CCN1C(=O)[C@H]2CC[C@@H]1CN(c1ncccc1C(N)=O)C2", "TcHisRS": -2.41, "LiHisRS": 20.51}
{"compound": "O=C(O)C(F)(F)F.[H][C@@]12COC[C@]1(CNC(=O)c1ccco1)CN(CC1CCOCC1)C2", "Toxoplasma": -11.48, "T. brucei": -22.37}
{"compound": "Cc1ccc(-c2cc(C)nc(C3CCCN3S(C)(=O)=O)n2)cc1", "stereo": "stereo unspecified", "TcHisRS": 3.077, "LiHisRS": 18.31}
{"compound": "O=c1n(Cc2ccccn2)nc(C2CCNCC2)n1Cc1ccccc1", "Toxoplasma": -6.672, "TcHisRS": 5.102, "LiHisRS": 19.44, "T. brucei": -1.714}
{"compound": "CN(C)[C@@H]1CN(C(=O)c2cc3ccc(F)cc3[nH]2)C[C@H]1O", "Toxoplasma": -18.6, "TcHisRS": 5.303, "LiHisRS": 2.899, "T. brucei": -23.6}
{"compound": "CC(NC(=O)NCCCn1cncn1)c1ccc(C(F)(F)F)cc1", "stereo": "stereo unspecified", "Toxoplasma": 24.44, "TcHisRS": 7.289, "LiHisRS": 9.174}
{"compound": "Cc1ccc(-c2cc(CN3CCc4cnc(C)nc4C3)on2)cc1", "Toxoplasma": 2.632, "TcHisRS": 21.55, "LiHisRS": 3.125, "T. brucei": -9.743}
{"compound": "Cc1ccc(NC(=O)CNc2cccc(C(N)=O)c2C)c(C)c1", "Toxoplasma": 23.43, "TcHisRS": 5.804, "LiHisRS": 8.642, "T. brucei": -59.15}
{"compound": "O=C(O)C(F)(F)F.O=C(O)C(F)(F)F.O=C1NC2(CCN(Cc3ccc(F)cc3)CC2)CC1c1ccncc1", "stereo": "stereo unspecified", "Toxoplasma": -1.486, "T. brucei": 28.32}
{"compound": "O=C(O)C(F)(F)F.[H][C@@]12OCCN(C(=O)c3ccnnc3)[C@@]1([H])CC[C@H]2OCCN(C)C", "Toxoplasma": 10.92, "T. brucei": -54.64}
{"compound": "NC(=O)N1CCC2(CCN(Cc3ccccn3)C2=O)C1.O=C(O)C(F)(F)F", "stereo": "stereo unspecified", "Toxoplasma": 3.048, "T. brucei": -12.45}
{"compound": "c1ccc(N2CCC(c3ccncc3)CC2)cc1", "Toxoplasma": -9.401, "TcHisRS": 6.818, "LiHisRS": 12.68, "T. brucei": 0.5256}
{"compound": "CSCCC(C)NC(=O)c1cccc(-c2n[nH]c(C)n2)c1", "stereo": "stereo unspecified", "Toxoplasma": -7.513, "TcHisRS": 9.524, "LiHisRS": 13.7, "T. brucei": -404.3}

For reference, 4 entries once more:

* CC(=O)N1CCC2(CC1)CNc1ccc(F)cc12 : Toxoplasma: -32.21%; TcHisRS: 5.882%; LiHisRS: 35.04%
* O=C(O)C(F)(F)F.O=C(O)C(F)(F)F.[H][C@@]12COC[C@]1(CNC(=O)c1ccno1)CN(Cc1ccncc1)C2 : Toxoplasma: -6.83%; T. brucei: -16.31%
* NC(=O)N1CCC2(CCN(Cc3ccccn3)C2=O)C1.O=C(O)C(F)(F)F (stereo unspecified) : Toxoplasma: 3.048%; T. brucei: -12.45%
* CN(C)[C@@H]1CN(C(=O)c2cc3ccc(F)cc3[nH]2)C[C@H]1O : Toxoplasma: -18.6%; TcHisRS: 5.303%; LiHisRS: 2.899%; T. brucei: -23.6%